Data on one substance can be found in article doi:10.1101/2021.01.25.428078.

Chains of the proteins cited; added tags and fusions are not shown. Lines headed by an entry give the natural chain unless they say otherwise; changes in a name come on top. Residues count along the entry.
UniProt Q13224, residues 27-1484: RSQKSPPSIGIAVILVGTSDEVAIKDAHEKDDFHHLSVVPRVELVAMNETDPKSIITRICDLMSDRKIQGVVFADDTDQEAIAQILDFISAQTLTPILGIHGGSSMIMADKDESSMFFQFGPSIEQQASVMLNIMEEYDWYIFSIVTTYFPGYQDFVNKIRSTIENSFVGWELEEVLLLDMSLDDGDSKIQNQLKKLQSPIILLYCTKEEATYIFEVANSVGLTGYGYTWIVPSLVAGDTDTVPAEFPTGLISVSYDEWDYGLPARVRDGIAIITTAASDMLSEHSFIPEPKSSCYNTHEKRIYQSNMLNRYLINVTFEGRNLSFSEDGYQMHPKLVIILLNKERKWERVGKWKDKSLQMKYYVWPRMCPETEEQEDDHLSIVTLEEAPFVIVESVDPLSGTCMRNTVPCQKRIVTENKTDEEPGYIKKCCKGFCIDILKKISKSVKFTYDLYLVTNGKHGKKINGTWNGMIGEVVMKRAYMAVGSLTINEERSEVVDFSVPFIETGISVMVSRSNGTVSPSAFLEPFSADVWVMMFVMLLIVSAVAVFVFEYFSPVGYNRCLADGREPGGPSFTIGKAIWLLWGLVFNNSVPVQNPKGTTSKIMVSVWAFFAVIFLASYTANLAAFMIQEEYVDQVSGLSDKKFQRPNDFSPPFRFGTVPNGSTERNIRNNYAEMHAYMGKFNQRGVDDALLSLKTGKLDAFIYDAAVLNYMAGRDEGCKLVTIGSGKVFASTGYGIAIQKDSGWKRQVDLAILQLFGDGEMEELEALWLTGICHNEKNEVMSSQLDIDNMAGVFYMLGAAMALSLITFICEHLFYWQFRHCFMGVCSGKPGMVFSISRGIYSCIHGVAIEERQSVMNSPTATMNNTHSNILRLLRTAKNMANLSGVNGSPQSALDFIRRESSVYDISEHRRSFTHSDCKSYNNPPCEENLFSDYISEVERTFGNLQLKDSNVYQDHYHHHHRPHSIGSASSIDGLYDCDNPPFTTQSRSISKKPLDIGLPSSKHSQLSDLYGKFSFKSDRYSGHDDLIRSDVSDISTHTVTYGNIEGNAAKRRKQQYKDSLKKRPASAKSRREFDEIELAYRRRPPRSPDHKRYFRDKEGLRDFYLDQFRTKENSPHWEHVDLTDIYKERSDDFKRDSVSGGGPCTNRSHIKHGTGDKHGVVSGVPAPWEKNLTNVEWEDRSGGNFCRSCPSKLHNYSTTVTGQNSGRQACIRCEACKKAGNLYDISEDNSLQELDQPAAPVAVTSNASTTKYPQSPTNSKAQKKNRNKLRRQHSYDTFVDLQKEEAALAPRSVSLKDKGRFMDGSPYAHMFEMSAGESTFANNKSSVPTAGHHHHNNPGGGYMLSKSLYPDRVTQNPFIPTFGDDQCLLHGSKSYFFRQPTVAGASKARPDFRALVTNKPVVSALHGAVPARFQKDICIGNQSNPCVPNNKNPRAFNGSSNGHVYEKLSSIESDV
UniProt P14416: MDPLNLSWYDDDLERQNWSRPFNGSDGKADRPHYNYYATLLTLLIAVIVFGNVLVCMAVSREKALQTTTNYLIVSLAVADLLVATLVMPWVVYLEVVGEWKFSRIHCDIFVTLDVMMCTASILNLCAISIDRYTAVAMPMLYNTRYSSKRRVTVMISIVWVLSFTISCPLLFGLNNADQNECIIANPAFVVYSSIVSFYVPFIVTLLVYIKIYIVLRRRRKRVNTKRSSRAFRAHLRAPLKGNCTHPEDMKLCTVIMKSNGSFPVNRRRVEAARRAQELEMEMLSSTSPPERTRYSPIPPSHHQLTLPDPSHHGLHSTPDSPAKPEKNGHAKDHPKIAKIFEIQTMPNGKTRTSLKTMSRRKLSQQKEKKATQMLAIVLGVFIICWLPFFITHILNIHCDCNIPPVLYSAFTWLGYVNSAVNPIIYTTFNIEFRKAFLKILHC

The experiment addresses GluN2B subunit of the glutamate NMDA receptor, human (human (endogenous in post-mortem caudate putamen)) (UniProt Q13224). In words: proximity ligation.

No constants are given. Whether binding was seen depends on the method and setting. Binding seen in cells or lysates may run through a third protein. Some binding calls cover weakened binding; strength is not graded here.

On to “dopamine receptor 2 (D2R), human (from UniProt P14416 1-443)”, for which the binding entry is “binds”.
